Test results published in publication PMC7819943, “Rice protein-binding microarrays: a tool to detect cis-acting elements near promoter regions in rice”.
The list shows a part of the results.

Sequences of proteins named here, by UniProt entry; tags and fusion partners are left off.
UniProt Q0JBA9, entry or part of it: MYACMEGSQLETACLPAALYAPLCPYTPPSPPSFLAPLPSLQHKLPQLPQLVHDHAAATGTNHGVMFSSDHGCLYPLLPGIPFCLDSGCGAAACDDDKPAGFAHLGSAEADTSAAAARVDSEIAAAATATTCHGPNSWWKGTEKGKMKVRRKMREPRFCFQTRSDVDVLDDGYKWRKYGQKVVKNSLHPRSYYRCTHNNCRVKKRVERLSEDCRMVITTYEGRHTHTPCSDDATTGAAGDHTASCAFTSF

These sequences were tested against OsWRKY34 (Oryza sativa, UniProt Q0JBA9 1-250) (assay: protein-binding microarray (RPBM); PBS, 2% BSA, 51.3 ng/ul salmon testes DNA, 50 uM zinc acetate, 200 nM TF, 25 C, 1 h; high values mean tight binding). Conditions: protein: recombinant; tags: N-terminal polyhistidine and DsRed monomer fusion (pET32a); label: CyDye5-dUTP incorporated in the synthesized complementary strand; 3' TTTTT single-stranded linker to array surface; dsDNA, one strand shown.
Outline: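 An Axon 4000B scanner gave the binding signal as per-feature fluorescence intensity in arbitrary units. This followed washing of a custom Agilent array that had been incubated for 1 h at 25 °C with 200 nM protein in PBS, 2% BSA, salmon testes DNA and 50 µM zinc acetate. The proteins were transcription factors fused at the N-terminus to polyhistidine and DsRed, expressed in E. coli BL21-CodonPlus and purified on Ni–NTA.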
In the case of “CCAGGAATTTGGATCCACTTGAGTTTAATTAATTAATTTCCGGAGTCACCTAGTGCAG”, the binding signal is reported as 8900 fluorescence intensity (a.u.). With “GGAGGGTGCGACAGCCCAATGTATCACTTGCGTTTGTATCCGGAGTCACCTAGTGCAG” the binding signal was 8230 fluorescence intensity (a.u.). For “GATGTTCTATTAGTCCCGTCACTTTTGCTTTTTTTCTTTCCGGAGTCACCTAGTGCAG”, the binding signal was 8530 fluorescence intensity (a.u.). For “TATTGTCTAATTGGCATAGCTGCCAATCTGTTATTGCTCACGGAGTCACCTAGTGCAG”, the binding signal was 8660 fluorescence intensity (a.u.). With “CATGCGTTCCTGTGGTCTGGGGAGGATTCTTGTCATGGCTCGGAGTCACCTAGTGCAG” the binding signal was 13000 fluorescence intensity (a.u.). For “ATTATCCTTAACGAATTAGTTAGTTACGTCTTCGTACGTTCGGAGTCACCTAGTGCAG”, the binding signal was 8190 fluorescence intensity (a.u.). With “CTTTGTTTGATCGTATCTCTGGCGCTTTGGTATCAGTTCCCGGAGTCACCTAGTGCAG” the binding signal was 8430 fluorescence intensity (a.u.). With “AAGGCTGTGTCGTGTTGTTCGGGCCGCATCTTGGCCCTTCCGGAGTCACCTAGTGCAG” the binding signal was 8150 fluorescence intensity (a.u.). In the case of “GAACATCTTTTCTTCTACTTGTTTGATGGCAGAGACTTGACGGAGTCACCTAGTGCAG”, the binding signal is reported as 8910 fluorescence intensity (a.u.). For “ATCTACTATTACTAGCTGCTAATTAACAACGCACTAACTACGGAGTCACCTAGTGCAG”, the binding signal was 8360 fluorescence intensity (a.u.). “CGGCCCATATCCCATATCTCATCGTACTCTTCCTCAATTCCGGAGTCACCTAGTGCAG” was tested, and the binding signal was 10500 fluorescence intensity (a.u.). For “TCCGGAGTCTGCACCCATCTTCCCCACGTGCGCGCCCATCCGGAGTCACCTAGTGCAG”, the binding signal was 8980 fluorescence intensity (a.u.). In the case of “CGTATTCCAGTGAGTTGGTTTTGAAAGGCCCAGCCGGCCCCGGAGTCACCTAGTGCAG”, the binding signal is reported as 8260 fluorescence intensity (a.u.). For “TATCCGCATCTCCCATCACATTAAGTTTTCAATGATTTTTCGGAGTCACCTAGTGCAG”, the binding signal was 9830 fluorescence intensity (a.u.). For “TCCTTGTCCATCTTTGTCCAGGCCTCGCGTTCCTCGGTTCCGGAGTCACCTAGTGCAG”, the binding signal was 14200 fluorescence intensity (a.u.). In the case of “GCCTTCATTTCTTTGTATTCCAGTCTACAGAGCATAAATGCGGAGTCACCTAGTGCAG”, the binding signal is reported as 8120 fluorescence intensity (a.u.). “GCAAGAGCTCTCACACCCTTGTGCACTTAGTTTATCTAGTCGGAGTCACCTAGTGCAG” was tested, and the binding signal was 12000 fluorescence intensity (a.u.). For “CTGAGAAATGCTTGGTGTGTTTGCATGTTGTTCTTCGTCACGGAGTCACCTAGTGCAG”, the binding signal was 8160 fluorescence intensity (a.u.). In the case of “AGGAGAGAAGTTTTTTGGTAGAGCTTTGGAAAATTCCACACGGAGTCACCTAGTGCAG”, the binding signal is reported as 8620 fluorescence intensity (a.u.). In the case of “CCTTCGCAGTAACGTAATTGTGTCTGGTCAACGCACAATTCGGAGTCACCTAGTGCAG”, the binding signal is reported as 11300 fluorescence intensity (a.u.). In the case of “ATCTTTGCGGCGCCTCCTATTCCGTCAAGGCAGGCCGCAGCGGAGTCACCTAGTGCAG”, the binding signal is reported as 9260 fluorescence intensity (a.u.). In the case of “TAATCTTTCTTACTACTTTTTTTTCAATTTTTTATGACTTCGGAGTCACCTAGTGCAG”, the binding signal is reported as 8450 fluorescence intensity (a.u.). For “TTATTTATTGTGGCCTACCTCTTGTCACCGCTGCTAGCTCCGGAGTCACCTAGTGCAG”, the binding signal was 10800 fluorescence intensity (a.u.). With “CCCTCGACACCCAGATGTTCTGGTTCCGCACCCACCTGCACGGAGTCACCTAGTGCAG” the binding signal was 11200 fluorescence intensity (a.u.). For “CCTATTTTTTCTTATATATATATATATATATATATATAAACGGAGTCACCTAGTGCAG”, the binding signal was 9240 fluorescence intensity (a.u.). In the case of “GCGATCTCCATCGCAGCGGAGGGGAGGGGAGGGGATCCTGCGGAGTCACCTAGTGCAG”, the binding signal is reported as 10300 fluorescence intensity (a.u.). For “CCCTCATCTTGTCACCTTACAAAATCGTCCTTGAACCACACGGAGTCACCTAGTGCAG”, the binding signal was 9230 fluorescence intensity (a.u.). With “AATACCGTATGCGTTCACCTCAATCAATTGGTTGATTTTACGGAGTCACCTAGTGCAG” the binding signal was 9060 fluorescence intensity (a.u.). With “ACTCTTGGTATGTTCTGCTTAGATACACTGTGTTGCTTGCCGGAGTCACCTAGTGCAG” the binding signal was 9380 fluorescence intensity (a.u.). With “TTGTGCCTCAAGCCCTAACCTAGCCCAACGTCATTCCCGGCGGAGTCACCTAGTGCAG” the binding signal was 8930 fluorescence intensity (a.u.). For “GAACACATGTTTGACCATTCGCTTTATTTAAAAATTTTATCGGAGTCACCTAGTGCAG”, the binding signal was 8930 fluorescence intensity (a.u.). In the case of “TTGCGTGCTGTTCATCTTCTTCCTCTGTCATTGCCTCCTCCGGAGTCACCTAGTGCAG”, the binding signal is reported as 10900 fluorescence intensity (a.u.). For “TGTGTGACGTTAACACGCTACTATTCCCTTCTGCCTAATCCGGAGTCACCTAGTGCAG”, the binding signal was 8250 fluorescence intensity (a.u.). In the case of “GCGACCAACCACGAACCACGCCACACGCTCGCCGACTTCTCGGAGTCACCTAGTGCAG”, the binding signal is reported as 9640 fluorescence intensity (a.u.). In the case of “AGCACCATCCTCATCGCCGGCCGCGACGACATCTCCGAGGCGGAGTCACCTAGTGCAG”, the binding signal is reported as 9940 fluorescence intensity (a.u.). “TGGTGGTGTGTTTGCGCAGACGTTTTTCATATAATTGGTTCGGAGTCACCTAGTGCAG” was tested, and the binding signal was 11000 fluorescence intensity (a.u.). With “ACTATTGCCGTTTGTTGGTTTAGGAAAGTGGTATTCCTATCGGAGTCACCTAGTGCAG” the binding signal was 8660 fluorescence intensity (a.u.). “GCTCCGCCGCCGCCGCCGTTCAACCGCTCGTCTCCTCCTCCGGAGTCACCTAGTGCAG” was tested, and the binding signal was 11800 fluorescence intensity (a.u.). For “CTCACTGCTGCATTCCGCATTCCTCGCTCGCTCACCTCACCGGAGTCACCTAGTGCAG”, the binding signal was 9640 fluorescence intensity (a.u.). “ACGTATCTCTGTTTGATAAAATGCCCACATGTATCCTGTACGGAGTCACCTAGTGCAG” was tested, and the binding signal was 8270 fluorescence intensity (a.u.). In the case of “GCTAGGTGTGTTTGGTTGCCTGCATAGTCCTTGGCTCGAACGGAGTCACCTAGTGCAG”, the binding signal is reported as 9030 fluorescence intensity (a.u.). With “AGGACCTACCCTGACCAGATTGTGATGAAGATGTTTCTCTCGGAGTCACCTAGTGCAG” the binding signal was 8420 fluorescence intensity (a.u.). In the case of “CACCTGGTTCAGTCTCTACCGTCCATCTGCGTCTCTCCTACGGAGTCACCTAGTGCAG”, the binding signal is reported as 9690 fluorescence intensity (a.u.). With “CATTTTTGTTCGGTTGTGTTTTCCTTTTTTTTCCGGGTTTCGGAGTCACCTAGTGCAG” the binding signal was 12400 fluorescence intensity (a.u.). “CATTCTATTCAGCAAAAGCTGTTTGCCACTTTGCCGGTTCCGGAGTCACCTAGTGCAG” was tested, and the binding signal was 9540 fluorescence intensity (a.u.). In the case of “GGTTATTATATCTACAAAATTCTTGCACACCTCAGCAATGCGGAGTCACCTAGTGCAG”, the binding signal is reported as 8090 fluorescence intensity (a.u.). For “AGAGTTCTTATCCTAGTTTTTCCAACTCACTTATCTCGTTCGGAGTCACCTAGTGCAG”, the binding signal was 10900 fluorescence intensity (a.u.). “CCATTGCCGCACCTCATCACCTCCTCGTCTTCTTCTTCCACGGAGTCACCTAGTGCAG” was tested, and the binding signal was 9220 fluorescence intensity (a.u.). “GGCTGATTGGGCAGATTCTTTTATTGTTTCTATTTATAAACGGAGTCACCTAGTGCAG” was tested, and the binding signal was 9290 fluorescence intensity (a.u.). In the case of “AATCTTCTCCACTCCACTTCTTGTGTGCCGAGCTTCGTTCCGGAGTCACCTAGTGCAG”, the binding signal is reported as 13300 fluorescence intensity (a.u.). “ACCATCAACCTCCACAAGCGCCTCCACAGCTGGTACGTCCCGGAGTCACCTAGTGCAG” was tested, and the binding signal was 9680 fluorescence intensity (a.u.). In the case of “TAAGTTGTTTGACTTTTTTTCTAGTCAAACTTGTCTGAGTCGGAGTCACCTAGTGCAG”, the binding signal is reported as 17000 fluorescence intensity (a.u.). “ACAAATCCATTTGTTCCTTTGCCACTATGCTTTGATTTAGCGGAGTCACCTAGTGCAG” was tested, and the binding signal was 8040 fluorescence intensity (a.u.). With “TTTTGTTTCACCATTTCGGCTCACTCCATAGGACATGGAACGGAGTCACCTAGTGCAG” the binding signal was 9200 fluorescence intensity (a.u.).
